Experimental data as given in PubChem BioAssay AID652054 (National Center for Advancing Translational Sciences (NCATS), 2013).
About 9,100 (2.5%) of roughly 360,000 compounds were called active. Inconclusive means that the source gave no clear call. Such entries were picked first, then a sample of the others. No stated cut-off is given here; in the data, active means max response below about -50%; inconclusive means no clear call, values can overlap the other calls; inactive means above that.

The chains behind the UniProt entries cited, without tags or fusion partners.
UniProt P35462, whole entry, looked up: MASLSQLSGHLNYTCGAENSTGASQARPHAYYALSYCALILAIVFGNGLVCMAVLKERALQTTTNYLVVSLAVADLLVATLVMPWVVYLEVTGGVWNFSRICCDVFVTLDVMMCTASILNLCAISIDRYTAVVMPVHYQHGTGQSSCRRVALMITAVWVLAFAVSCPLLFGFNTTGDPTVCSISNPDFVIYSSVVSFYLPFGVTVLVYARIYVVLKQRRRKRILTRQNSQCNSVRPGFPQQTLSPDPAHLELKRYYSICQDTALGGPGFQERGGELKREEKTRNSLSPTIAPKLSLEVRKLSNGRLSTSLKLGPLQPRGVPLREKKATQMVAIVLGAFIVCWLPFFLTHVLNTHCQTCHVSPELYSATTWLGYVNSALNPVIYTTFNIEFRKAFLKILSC

target: D(3) dopamine receptor (Homo sapiens) (UniProt P35462); experiment: qHTS of D3 Dopamine Receptor Antagonist: qHTS; conditions: D3R cells, DiscoveRx beta-arrestin luminescence, antagonist mode; hits give low values
In short: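 Cells expressing the human receptor were seeded at 1500 cells/well, incubated overnight at 37 degrees C in 5% CO2, then exposed to library compounds with dopamine controls for 90 minutes at 37 degrees C before luminescent detection.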
On the % scale 0 is the no-effect control and ±100 the full control effect.

Structure (SMILES) | max response, negative = inhibition
O=C(NCCN1CCc2ccccc2C1)C1CCN(S(=O)(=O)N2CCCCC2)CC1 | active: -66%
CCN(CC)CCNC(=O)CCCCn1c(=S)[nH]c2c([nH]c3ccc(OC)cc32)c1=O | active: -55.9%
O=C(COC(=O)/C=C/c1cccc(F)c1)NC(=O)NC1CCCC1 | inactive: 7.8%
Nc1nonc1-n1nnc(C(=O)N/N=C/c2cccc(Cl)c2)c1-c1cccs1 | inconclusive: -32.5%
CC(C)NCCOc1cccc(Br)c1 | active: -74.8%
O=C(Nc1ncccc1O)c1cccc(S(=O)(=O)N2CCc3ccccc32)c1 | inactive: 0%
O=C(COc1ccc(Cl)cc1)N/N=C/CCc1ccccc1 | active: -60%
O=C(N/N=C/c1cccs1)c1cc(C2CC2)nc2ccccc12 | inconclusive: -40.9%
CC(=O)N1CCc2cc(Br)cc(S(=O)(=O)N3CCC(C(=O)O)CC3)c21 | inactive: 4.69%
COc1cccc(NC(=O)CSc2nc(C)cs2)c1 | inconclusive: -32.6%
CCC(C)N(CC(=O)Nc1cccc(C)c1C)C(=O)CCl (centres undefined) | inactive: -6.69%
CC(C)(C)c1ccccc1OCCOCCN1CCCCCC1 | active: -62.4%
CNC(=S)N(Cc1ccco1)Cc1cc2cc3c(cc2[nH]c1=O)OCCO3 | inconclusive: -31.6%
O=C(CNC(=O)c1ccccc1O)N/N=C/c1ccccn1 | inconclusive: -32.9%
O=c1[nH]c2ccccc2n1C1CCN(CCOc2ccccc2)CC1 | active: -110%
O=C(c1ccccc1)c1ccc(NCCCn2ccnc2)c([N+](=O)[O-])c1 | inconclusive: -33%
CC1CC(C)CN(C(=O)CSc2nnc(N)s2)C1 (centres undefined) | inactive: -8.45%
Cc1ccc(C(=O)O)cc1NC(=S)NC(=O)c1ccc([N+](=O)[O-])c(C)c1 | inconclusive: -47.5%
CCOc1ccc(C(=O)NCC(=O)OCc2ccc(F)cc2Cl)cc1 | inconclusive: -34%

Structure (SMILES) | max response, negative = inhibition
O=c1c2ccccc2[nH]c(=S)n1CCCN1CCN(c2ccccc2)CC1 | active: -70.8%
COc1cccc(CNc2nc3ccccc3n2C)c1O | active: -56.7%
O=c1cc(CO)oc(C(Nc2ccccn2)c2cccc(F)c2)c1O (centres undefined) | inconclusive: -30.4%
O=C(CSc1ncccn1)NN=C1CCCCCCC1 | inactive: 0%
COc1cc(-c2nc3cnccn3c2Nc2ccc(C(C)C)cc2)ccc1O | inactive: 50.1%
CSc1ccc(NC(=O)NCCN2CCc3ccccc3C2)cc1 | active: -61.1%
Cc1ccc(C)c(/C(O)=C2/C(=O)C(=O)N(CCN3CCOCC3)C2c2ccc(C)o2)c1 (centres undefined) | inconclusive: -34.3%
COc1ccc(C(CNC(=O)CNC(=O)c2cccc(C)c2)N2CCCCC2)cc1 (centres undefined) | active: -51.7%
O=C(NCC(c1cccs1)N1CCOCC1)c1cc(-c2ccc(F)cc2)nc2ccccc12 (centres undefined) | active: -69.1%
COc1cccc(CN2CCCC(C(=O)c3ccc4c(c3)OCO4)C2)c1O (centres undefined) | inconclusive: -34.3%
O=[N+]([O-])c1cccc(C2NCC(c3ccccc3Cl)c3c2[nH]c2ccccc32)c1 (centres undefined) | active: -64.1%
CCCCCCCC[n+]1cccc2c3ccccc3ccc21 | inactive: 17.4%
Cc1ccccc1NC(=S)NCCSc1ccc(Cl)cc1 | inactive: -12.2%
Clc1ccccc1CN(Cc1ccccc1)c1ncnc2nc[nH]c12 | active: -64.1%
NC(=O)CC(NC(=O)Cc1cccc2ccccc12)c1ccc(N2CCC(N3CCCC3)CC2)c([N+](=O)[O-])c1 (centres undefined) | inconclusive: -46.5%
CCCc1cc2c(=O)c(-c3ccccn3)c(C)oc2cc1O | inactive: -5.69%
O=C(c1[nH]ncc1[N+](=O)[O-])N1CCOCC1 | inconclusive: -33.2%
O=C(Cc1ccccc1)Nc1ccc(C(=O)O)cc1 | inconclusive: -39.6%
O=C(NCc1ccco1)Nc1nnc([C@H]2C[C@H](O)[C@@H](CO)O2)s1 | inconclusive: -39.6%
O=C(CN(c1ccccc1F)S(=O)(=O)c1ccccc1)NC1CCCCCC1 | inactive: -19.1%

Filtered by structure: the entries above with bromine.
Structure (SMILES) | max response, negative = inhibition
CC(C)NCCOc1cccc(Br)c1 | active: -74.8%
CC(=O)N1CCc2cc(Br)cc(S(=O)(=O)N3CCC(C(=O)O)CC3)c21 | inactive: 4.69%

Remaining list, next part.

Structure (SMILES) | max response, negative = inhibition
Cc1cc(Br)ccc1OCCNCc1ccccc1 | active: -70.3%
CCN1C(=O)[C@H]2[C@@H](c3ccc(C)cc3)N[C@]3(CCCN(Cc4ccc(F)cc4)C3=O)[C@H]2C1=O | inactive: -24.5%
COc1ccccc1OCCNC(=O)C1CC(=O)N(c2ccccc2OC)C1 (centres undefined) | inactive: 3.62%
O=C(O)c1cc2c(cc1NC(=O)C1CCCC1)OCCO2 | inactive: -2.67%
O=C(CN1CCCC1)Nc1ccc(Oc2ccc(NC(=O)CN3CCCC3)cc2)cc1 | inconclusive: -35.9%
CCN1CCc2nc(SCC(=O)Nc3ccc(OC)cc3)c(C#N)cc2C1 | active: -70.1%
Nc1cc2[nH]c(=O)c3ccccc3c2cc1Br | inactive: 0%
Clc1ccc(COc2cccc(CNCc3ccncc3)c2)cc1 | inactive: 1.73%
COc1cccc(NC(=O)CC2Oc3ccccc3NC2=O)c1 (centres undefined) | inactive: -8.1%
Cc1ccc(C(=O)N/C(=C\c2ccc(Cl)cc2)C(=O)NCCN2CCOCC2)cc1 | inactive: 10.1%
COCCn1c(SCC(=O)N2CCc3ccccc3C2)nc2ccccc2c1=O | inactive: 12.4%
Cc1cc(Cl)c2oc(C(=O)N(C)CC3CCOCC3)c(C)c2c1 | inactive: -3.33%
CC(C)CNC(=O)NC1C(NC(=O)NCC(C)C)N(C)C(=O)N1C (centres undefined) | inactive: 0%
COc1ccc(CCN2C(=O)CC(Nc3ccc(N4CCOCC4)cc3)C2=O)cc1OC (centres undefined) | inconclusive: -30.3%
Cc1nc2cc(C(=O)NCc3ccc4c(c3)OCO4)ccc2n1-c1ccc(Br)cc1 | inconclusive: -31.2%
COc1cccc(Nc2c(F)c(OC)c(F)c(F)c2C(=O)O)c1 | inconclusive: -35.4%
Nc1ccccc1NC(=O)NC(=O)c1ccccc1 | inactive: 9.02%
O=C(NC1CC2CCC(C1)N2C(=O)NC1CCCCC1)NC12CC3CC(CC(C3)C1)C2 (centres undefined) | inconclusive: -33.4%
COc1ccccc1NC(=O)Nc1ccc(-n2ccc(C(F)(F)F)n2)cc1 | inconclusive: -32.1%
